# Data from US7186518B2, “Method and composition useful for determining FK 506” (Dade Behring Inc., priority 2003, dated 2007).
# For at least one compound, name, drawing or mass did not settle the structure.
# Test system: FK 506 binding proteins
# Assay: ACMIA FK 506 assay on DIMENSION analyzer comparing pretreatment regimens (displacement of protein-bound FK 506 in whole blood standards)
# Details: pretreatment solution 2.7 μg/mL displacer
compound,measurement,setting,value
CO[C@H]1C[C@@H]2CC[C@@H](C)[C@@](O)(O2)C(=O)C(=O)N2CCCC[C@H]2C(=O)O[C@H]([C@H](C)C[C@@H]2CC[C@@H](O)[C@H](OC)C2)CC(=O)[C@H](C)/C=C(\C)[C@@H](O)[C@@H](OC)C(=O)[C@H](C)C[C@H](C)/C=C/C=C/C=C/1C [Rapamycin],ACMIA assay signal (Absorbance),FK 506 standard 0 ng/mL FK506,340.2 ABS × 10^−3
same,ACMIA assay signal (Absorbance),FK 506 standard 5 ng/mL FK506,421.3 ABS × 10^−3
same,ACMIA assay signal (Absorbance),FK 506 standard 10 ng/mL FK506,504.4 ABS × 10^−3
same,ACMIA assay signal (Absorbance),FK 506 standard 20 ng/mL FK506,661.3 ABS × 10^−3
same,ACMIA assay signal (Absorbance),FK 506 standard 30 ng/mL FK506,793.1 ABS × 10^−3
